Experimental data reported in the supplement of paper PMC3741180, “A Novel High Throughput Biochemical Assay to Evaluate the HuR Protein-RNA Complex Formation” (PLoS ONE, 2013).
This is one part of the list. This data set is noisy: repeats of one test often differ as much as different tests do.

Sequences of proteins named here, by UniProt entry; tags and fusion partners are left off.
UniProt Q15717, whole entry: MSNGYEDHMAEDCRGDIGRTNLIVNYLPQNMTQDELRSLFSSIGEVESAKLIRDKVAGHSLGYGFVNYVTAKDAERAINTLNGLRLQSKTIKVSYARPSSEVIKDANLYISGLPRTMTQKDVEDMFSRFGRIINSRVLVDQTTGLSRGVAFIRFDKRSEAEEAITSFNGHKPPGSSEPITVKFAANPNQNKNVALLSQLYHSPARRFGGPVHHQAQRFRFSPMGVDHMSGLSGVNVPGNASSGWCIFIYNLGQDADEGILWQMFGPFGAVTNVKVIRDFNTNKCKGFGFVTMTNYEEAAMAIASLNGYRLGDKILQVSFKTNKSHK

These molecules were tested against HuR (ELAVL1) - TNFalpha ARE RNA complex (UniProt Q15717) (assay: AlphaScreen HuR-RNA complex signal Z-score relative to positive (Bi-TNF, DMSO) controls (Z-score (SD units of positive control)); higher = more complex signal). Conditions: screen stage: primary screen; compound concentration: 25 nM.

SMILES | AlphaScreen HuR-RNA complex signal Z-score
CCCCC1(COC(=O)CCC(=O)O)C(=O)N(c2ccccc2)N(c2ccccc2)C1=O | 1.5
COc1cc(NC(C)CCCN)c2ncccc2c1 (configuration not stated) | 16.8
COC1(C)CCC2OC2(C)CCC2C1CC2(C)C (configuration not stated) | 1.64
CN(C)[C@@H]1C(O)=C(C(N)=O)C(=O)[C@@]2(O)C(O)=C3C(=O)c4c(O)cccc4[C@@](C)(O)[C@H]3[C@H](O)[C@@H]12 | 5.31
CC(=O)NCCc1ccc(O)c(-c2c(O)c(O)c3c(c2O)C(=O)c2c(cc(O)c(C(=O)O)c2C(=O)O)C3=O)c1 | -0.449
CC1=C(/C=C/C(C)=C/C=C/C(C)=C\C(=O)O)C(C)(C)CCC1 | 2.48
CC/C(=C(/CC)c1ccc(O)cc1)c1ccc(O)cc1 | -3.4
CSc1ccc2c(c1)N(CCC1CCCCN1C)c1ccccc1S2 (configuration not stated) | -1.13
NC(N)=Nc1nc(CSCC/C(N)=N/S(N)(=O)=O)cs1 | 0.17
Cc1cc(-c2ccccc2)nnc1NCCN1CCOCC1 | 2.87
COc1ccc(-c2cc(=O)c3c(OC(C)=O)cc(OC(C)=O)cc3o2)cc1 | 2.06
C=CCOC(Cn1ccnc1)c1ccc(Cl)cc1Cl (configuration not stated) | 2.61
O=C(/C=C/c1ccc(O)c(O)c1)O[C@@H]1C[C@](O)(C(=O)O)C[C@@H](O)[C@H]1O | 1.24
COc1cc(O)ccc1C(C)=O | 0.549
CC(=O)OCC(=O)[C@H]1CC[C@H]2[C@@H]3CCC4=CC(=O)CC[C@]4(C)[C@H]3CC[C@]12C | 0.719
N=C(N)NCCN1CCCCCCC1 | -0.197
CC(CN(C)C)CN1c2ccccc2Sc2ccccc21 (configuration not stated) | -1.05
CC1(C)[C@@H](OC(=O)CCC(=O)O)CC[C@]2(C)[C@H]3C(=O)C=C4[C@@H]5C[C@@](C)(C(=O)O)CC[C@]5(C)CC[C@@]4(C)[C@]3(C)CC[C@@H]12 | 2.1
Nc1ccccc1C(=O)CC(N)C(=O)O (configuration not stated) | 2.13
CCN(CC)CCOCCOC(=O)C(CC)(CC)c1ccccc1 | -0.524
CCCOc1ccc(C(=O)OCCN(CC)CC)cc1N | -0.142
CC[C@@H](CO)NCCN[C@@H](CC)CO | 1.36
Cc1cc(O)c2c(O)c3c(O)cccc3cc2c1 | 1.69

SMILES | AlphaScreen HuR-RNA complex signal Z-score
C=CCSCC1Nc2cc(Cl)c(S(N)(=O)=O)cc2S(=O)(=O)N1 (configuration not stated) | 0.168
c1ccc(CN(CC2=NCCN2)c2ccccc2)cc1 | 0.0329
COc1c(N2CCNC(C)C2)c(F)cc2c(=O)c(C(=O)O)cn(C3CC3)c12 (configuration not stated) | -1.61
N[C@@H](C(=O)O)[C@@H](O)[C@H](O)[C@H](O)CO | 3.44
O=C(c1ccccc1)c1ccc2n1CCC2C(=O)O (configuration not stated) | 1.12
CCOC(=O)[C@@](C)(N)Cc1ccc(O)c(O)c1 | 0.752
OCc1ccccc1O | 20.5
CC1(C)CC2C1CCC1(C)OC2(C)CCC1O (configuration not stated) | 2.26
C=C(C)[C@@H]1CC=C(CO)CC1 | 2.27
COC1=C(OC)C(=O)C(C/C=C(\C)CC/C=C(\C)CC/C=C(\C)CC/C=C(/C)CC/C=C(\C)CC/C=C(\C)CC/C=C(\C)CC/C=C(\C)CC/C=C(\C)CCC=C(C)C)=C(C)C1=O | 1.87
FC(F)(F)COCC(F)(F)F | 0.0994
CCN[C@@H]1C[C@H](N)[C@@H](O[C@H]2OC(CN)=CC[C@H]2N)[C@H](O)[C@H]1O[C@H]1OC[C@](C)(O)[C@H](NC)[C@H]1O | 0.326
CNc1ccccc1C(=O)N1CCc2c([nH]c3ccccc23)C1=O | 0.058
COc1ccc2c(=O)c(CC(=O)O)coc2c1 | 0.366
COc1ccccc1OCC(O)COC(N)=O (configuration not stated) | 2.2
Nc1c2c(nc3ccccc13)CCCC2O (configuration not stated) | 1.21
C=CCCCCCCCCC(=O)[O-].C=CCCCCCCCCC(=O)[O-].[Zn+2] | 1.37
O=c1cc(-c2ccccc2)oc2cccc(O)c12 | 2.31
CO/N=C(\C(=O)N[C@@H]1C(=O)N2C(C(=O)OC(C)OC(C)=O)=C(COC(N)=O)CS[C@H]12)c1ccco1 (some centres not stated) | 1.88
CN(C/C=C/C#CC(C)(C)C)Cc1cccc2ccccc12 | 0.922
Fc1ccc([C@@H]2CCNC[C@H]2COc2ccc3c(c2)OCO3)cc1 | 1.06
C=C1CCC2C(CC2(C)C)C(=O)CCC1O (configuration not stated) | 1.15
NC(CO)C(=O)NNCc1ccc(O)c(O)c1O (configuration not stated) | 0.378

Exported comma-delimited: part of the list above.
SMILES,AlphaScreen HuR-RNA complex signal Z-score
C=CCCCCCCCCC(=O)[O-].C=CCCCCCCCCC(=O)[O-].[Zn+2],1.37
O=c1cc(-c2ccccc2)oc2cccc(O)c12,2.31
CO/N=C(\C(=O)N[C@@H]1C(=O)N2C(C(=O)OC(C)OC(C)=O)=C(COC(N)=O)CS[C@H]12)c1ccco1 (some centres not stated),1.88
CN(C/C=C/C#CC(C)(C)C)Cc1cccc2ccccc12,0.922
Fc1ccc([C@@H]2CCNC[C@H]2COc2ccc3c(c2)OCO3)cc1,1.06

Later entries

SMILES | AlphaScreen HuR-RNA complex signal Z-score
CN(C)CCCN1c2ccccc2CCc2ccccc21 | -5.96
C[C@H]1COc2c(N3CCN(C)CC3)c(F)cc3c(=O)c(C(=O)O)cn1c23 | -8.73
O=C(NC1CCCCC1)NC1CCCCC1 | 4.12
CN1CCC(OC(c2ccccc2)c2ccccc2)CC1 | -1.91
O=C(Oc1cccc2cccnc12)c1ccccc1 | -0.953
C/C=C1\[C@H]2C=C(C)C[C@]1(N)c1ccc(=O)[nH]c1C2 | 1.71
C[N+](C)(C)CCO.[Cl-] | 0.0639
CC(C)=CCOc1cc2oc(=O)ccc2cc1O | 0.978
COc1cc(/C=C/C(=O)CC(=O)/C=C/c2ccc(O)c(OC)c2)ccc1O | 0.606
Cc1cc2nc3c(=O)[nH]c(=O)nc-3n(CC(O)C(O)C(O)COP(=O)(O)O)c2cc1C (configuration not stated) | 0.935
NCC[C@H](O)C(=O)N[C@@H]1C[C@H](N)[C@@H](O[C@H]2O[C@H](CN)[C@@H](O)[C@H](O)[C@H]2O)[C@H](O)[C@H]1O[C@H]1O[C@H](CO)[C@@H](O)[C@H](N)[C@H]1O | 0.31
COc1ccc2c(c1)OC[C@@H](Cc1ccc(OC)c(OC)c1)[C@H]2O | 0.863
Cn1cnc([N+](=O)[O-])c1Sc1ncnc2[nH]cnc12 | 0.272
CC(C)C(=O)Nc1ccc([N+](=O)[O-])c(C(F)(F)F)c1 | 0.206
CC(=O)OCC[N+](C)(C)C | 0.412
CC(=O)O[C@H]1C[C@@H](OC(C)=O)C(C)(C)C2CC(=O)[C@]3(C)C(CC[C@@]4(C)[C@H](c5ccoc5)OC(=O)[C@H]5O[C@]543)[C@]21C (some centres not stated) | -4.91
CC(=O)O[C@@H]1CC2C(C)(C)C(=O)CC[C@]2(C)C2CC[C@]3(C)C(=CC(=O)O[C@H]3c3ccoc3)[C@@]21C (some centres not stated) | 2.58
O=C(O)c1nc2cc(Cl)c(Cl)cc2nc1O | 2.32
C[C@H](CCC(=O)O)[C@H]1CC[C@H]2[C@@H]3CC[C@@H]4C[C@H](O)CC[C@]4(C)[C@H]3CC[C@]12C | 1.07
O=C(O)CCCC[C@@H]1SC[C@@H]2NC(=O)N[C@@H]21 | 0.748
CC1COc2c(N3CCN(C)CC3)c(F)cc3c(=O)c(C(=O)O)cn1c23 (configuration not stated) | 0.831
